Several values for one entry are separate records, joined by “and”; a condition that tells them apart may be missing. Equal values may be shown once. In all, about 320,000 compounds went through this assay and about 22,000 (6.9%) were called active. Inconclusive means that the source gave no clear call. Such entries were picked first, then a sample of the others. The call rests on the fitted dose curve; in most records, active means well fitted inhibition curve with a large enough effect; inconclusive means small, poorly fitted or top-dose-only effect, or another doubt; inactive means no such curve, though single readings can be large or run the other way. A potency beside an inconclusive call is a rough fit, not a confirmed value.
Assay: Primary qHTS for delayed death inhibitors of the malarial parasite plastid, 96 hour incubation
Details: P. falciparum luciferase reporter growth; series mostly up to 28.7 µM; activity change, negative = inhibition: at the top concentration
Outline: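 Delayed-death screen, second-generation endpoint: infected erythrocytes, 2% hematocrit, 0.05% parasitemia final; 96 hours at 37 C, 5% CO2; luciferase detection reagent; luminescence decrease equals reduced growth.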
On the % scale 0 is the no-effect control and ±100 the full control effect; potency means the concentration at half of the fitted maximal effect.

Row | SMILES | Potency | activity change, negative = inhibition
1 | COC(=O)CC1C(=O)NCCN1C(=O)OC(C)(C)C (stereo not given) | inconclusive: 4.15 µM [inhibitor, full curve] | –
2 | CCOC(=O)c1c(-n2cnnn2)sc2c1CCCC2 | – | inactive: 10.2%
3 | Cc1nn(C)c(C)c1S(=O)(=O)N(CC(=O)NCc1cccs1)c1ccc(C(C)C)cc1 | active: 9.28 µM | –
4 | CCOc1cccc(CNCCO)c1OCc1ccc(Cl)cc1 | inconclusive: 9.28 µM [inhibitor, single point] | –
5 | Cn1c(C(O)c2ccccc2)nc(Cl)c1Cl (stereo not given) | – | inactive: -20.6%
6 | Cc1csc(Sc2nc3c(c(=O)[nH]c(=O)n3C)n2Cc2ccccc2Cl)n1 | – | inactive: -8.66%
7 | O=C(CSc1nnc(-c2ccccc2O)o1)N1CCCCC1 | inconclusive: 13.1 µM [inhibitor, partial curve, poor fit] | –
8 | CN(C)/C=N/c1nc2ccc3c(c2s1)CCCC3 | inconclusive: 0.415 µM [inhibitor, full curve, poor fit] | –
9 | CC(=O)N1CCOc2cc(S(=O)(=O)N3CCN(c4ccccc4)CC3)c(Cl)cc21 | inconclusive: 18.5 µM [inhibitor, partial curve, poor fit] | –
10 | COc1ccc(C(C(=O)NC2CCCCC2)N(C(=O)CCl)c2ccccc2Cl)cc1 (stereo not given) | active: 0.294 µM | –
11 | CC(Oc1ccc(F)cc1)C(=O)N1CCN(c2ncccn2)CC1 (stereo not given) | – | inactive: 7.12%
12 | Fc1ccc(OCc2nc(-c3ccc(Br)o3)no2)c(F)c1 | inconclusive: 14.7 µM [inhibitor, partial curve] | –
13 | O=C(c1cnc2n(c1=O)CCS2)N1CCN(c2ccc(Cl)c(Cl)c2)CC1 | inconclusive: 8.28 µM [inhibitor, partial curve, poor fit] | –
14 | S=c1nc(Cc2ccccc2)[nH]c2ccccc12 | inconclusive: 18.5 µM [inhibitor, single point] | –
15 | CCc1nnc(NC(=O)c2ccc(COc3ccccc3C)o2)s1 | – | inactive: 4.22%
16 | O=C(CSc1nc(=O)n(CCCN2CCOCC2)c2c1CCCC2)Nc1cccc([N+](=O)[O-])c1 | inconclusive: 10.4 µM [inhibitor, single point] | –
17 | COc1cc(C2Nc3c(F)cccc3C3C=CCC32)cc(Br)c1OC (stereo not given) | – | inactive: 4.3%
18 | COc1ccc(CNC(=O)c2c[nH]c3c(OC)cc(OC)cc3c2=O)cc1 | inconclusive: 14.7 µM [inhibitor, partial curve, poor fit] | –
19 | CCOC(=O)c1ccc(NC(=O)C2(c3ccccc3)CCCC2)cc1 | inconclusive: 18.5 µM [inhibitor, single point] | –
20 | COc1ccc(-c2csc(NC(=O)CN3C(=O)NC4(CCCC4)C3=O)n2)c(OC)c1 | – | inactive: -3.36%
21 | O=C(Cn1c(NCCCO)nc2ccccc21)c1ccc(F)cc1 | inconclusive: 18.5 µM [inhibitor, single point] | –
22 | COC/C=C/C1=CC2=CC(=O)C(C)(OC(=O)c3cnc4ccccc4n3)C(=O)C2=CN1Cc1ccc(OC)cc1 (stereo not given) | inconclusive: 11.7 µM [inhibitor, single point] | –
23 | CC(C)C(=O)Nc1ccc(NC(=S)NC(=O)c2ccccc2F)cc1 | inconclusive: 3.7 µM [inhibitor, single point] | –
24 | Cc1ccc(C(=S)NCS(=O)(=O)c2ccc(C)cc2)cc1 | – | inactive: 32.9%

Pulled one by one from the list above:
Row | SMILES | Potency | activity change, negative = inhibition
11 | CC(Oc1ccc(F)cc1)C(=O)N1CCN(c2ncccn2)CC1 (stereo not given) | – | inactive: 7.12%
24 | Cc1ccc(C(=S)NCS(=O)(=O)c2ccc(C)cc2)cc1 | – | inactive: 32.9%
18 | COc1ccc(CNC(=O)c2c[nH]c3c(OC)cc(OC)cc3c2=O)cc1 | inconclusive: 14.7 µM [inhibitor, partial curve, poor fit] | –
5 | Cn1c(C(O)c2ccccc2)nc(Cl)c1Cl (stereo not given) | – | inactive: -20.6%

The listing continues:

Row | SMILES | Potency | activity change, negative = inhibition
25 | O=C(C1CCC(=O)N(C2CC2)C1)N1CCC(Oc2ccccc2F)CC1 (stereo not given) | – | inactive: -8.82%
26 | Cc1ccc(-c2nnn(CC(=O)N(CC3CCCO3)C(C(=O)NCC3CCCO3)c3ccc(F)cc3)n2)o1 (stereo not given) | inconclusive: 0.262 µM [inhibitor, full curve, poor fit] | –
27 | CCCCn1c(N)c(N(CCOC)C(=O)C2CCCN(C(=O)c3ccc(Cl)cc3)C2)c(=O)[nH]c1=O (stereo not given) | – | inactive: -6.68%
28 | O=C(NCC1CCCO1)c1ccc(Oc2ccc([N+](=O)[O-])cc2)cc1 (stereo not given) | active: 1.47 µM | –
29 | CC(C)CN(C(=O)COc1ccc(C(C)(C)C)cc1)C1CCS(=O)(=O)C1 (stereo not given) | inconclusive: 13.1 µM [inhibitor, partial curve] | –
30 | COc1cc(/C=N/NC(=O)c2cnccn2)cc(OC)c1OC | inconclusive: 0.0522 µM [inhibitor, full curve, poor fit] | –
31 | O=C(CS(=O)(=O)c1c[nH]c2ccccc12)Nc1ccc2c(c1)OCCO2 | – | inactive: -32.5%
32 | CCOC(=O)c1ccc(NC2c3ccccc3C(=O)N2c2ccccn2)cc1 (stereo not given) | active: 10.4 µM | –
33 | COc1ccc(C(c2nnnn2CCc2ccccc2)N2CCN(C3CCCC3)CC2)cc1OC (stereo not given) | active: 0.586 µM | –
34 | CCCCN(C)C1=CC2=CC(=C(C#N)C#N)CCC2CC1 (stereo not given) | inconclusive: 8.28 µM [inhibitor, partial curve, poor fit] | –
35 | Cc1occc1-c1nnc(SCC(=O)NC2(C#N)CCCC2)n1C | inconclusive: 0.0033 µM [inhibitor, full curve, poor fit] | –
36 | CCc1cccc(CC)c1NC(=S)NCCc1ccc(O)c(O)c1 | inconclusive: 16.5 µM [inhibitor, single point] | –
37 | Cc1cccc(N2CCN(c3ccc4cc(S(=O)(=O)N5CCCCC5)ccc4n3)CC2C)c1 (stereo not given) | active: 10.4 µM | –
38 | CCCCn1c(N)c(N(CC(C)C)C(=O)C2CCN(C(=O)c3ccc(F)cc3)CC2)c(=O)[nH]c1=O | inconclusive: 13.1 µM [inhibitor, partial curve] | –
39 | O=c1oc2c(-c3ccc([N+](=O)[O-])cc3)cc(O)cc2s1 | inconclusive: 16.5 µM [inhibitor, single point] | –
40 | O=C1Cc2ccccc2Sc2cc(OCCCN3CCCCC3)ccc21 | inconclusive: 10.4 µM [inhibitor, single point] | –
41 | CCOc1ccc(C(=S)N2CCN(C)CC2)cc1 | inconclusive: 0.586 µM [inhibitor, full curve, poor fit] | –
42 | O=C(NCCc1ccccc1)C(NS(=O)(=O)c1cccc2nsnc12)c1ccccc1 (stereo not given) | inconclusive: 13.1 µM [inhibitor, single point] | –
43 | COCC(C)n1c(C)cc(C(=O)CSc2ncccn2)c1C (stereo not given) | – | inactive: 210%
44 | Cc1ccccc1Cn1cnc2c(nnn2Cc2ccc(F)cc2)c1=O | inconclusive: 0.465 µM [inhibitor, partial curve, poor fit] | –
45 | Cn1c(SCc2cccnc2)nc2c(c1=O)SCC2 | inconclusive: 4.15 µM [inhibitor, single point] | –
46 | Cc1ccc(/C=C/C(=O)NCc2cccs2)cc1 | – | inactive: -15.7%
47 | COc1ccc(CCNC(=O)CCCNC(=O)Cn2cnc3sc(C)c(C)c3c2=O)cc1OC | inconclusive: 0.37 µM [inhibitor, full curve, poor fit] | –
48 | CSc1ccc2c(c1)N(CCC1CCCCN1C)c1ccccc1S2 (stereo not given) | inconclusive: 19 µM [inhibitor, single point] and inconclusive: 13.1 µM [inhibitor, partial curve, poor fit] | –

Row | SMILES | Potency | activity change, negative = inhibition
49 | CC(=O)Nc1ccc(NC(=O)C(C)OC(=O)c2c(C)nn(-c3ccccc3)c2Cl)cc1 (stereo not given) | inconclusive: 18.5 µM [inhibitor, single point] | –
50 | O=C(N1CCN(c2ccccc2F)CC1)C1(c2cccs2)CCOCC1 | – | inactive: -12.7%
51 | CC(C)CNCC(=O)N1c2ccccc2Sc2ccccc21 | inconclusive: 3.7 µM [inhibitor, full curve, poor fit] | –
52 | CCCN(CC(=O)Nc1ccc(Cl)cc1Cl)C(=O)/C=C/c1cccc([N+](=O)[O-])c1 | inconclusive: 10.4 µM [inhibitor, single point] | –
53 | Oc1ccc(N=Nc2ccc(Br)cc2)c(O)c1 | active: 1.85 µM | –
54 | CCCCCn1c(=O)[nH]c2cc(C(=O)N3CCN(CC)CC3)ccc2c1=O | inconclusive: 8.28 µM [inhibitor, partial curve] | –
55 | Clc1cc(Cl)c(OCCCCn2cncn2)c(Cl)c1 | active: 0.294 µM | –
56 | S=c1[nH]nc(-c2n[nH]c3c2CCC3)n1/N=C/C=C/c1ccccc1 | – | inactive: -1.29%
57 | O=C(NCc1cccc(Cl)c1)C1CCN(c2nnc(N3CCCC3=O)s2)CC1 | inconclusive: 18.5 µM [inhibitor, single point] | –
58 | N/C(=N\OC(=O)c1ccccc1Cl)c1cccnc1 | – | inactive: 28.7%
59 | COc1ccc(OCc2cc(C(=O)NC(C)Cc3cnccn3)no2)c(Cl)c1 (stereo not given) | inconclusive: 18.5 µM [inhibitor, partial curve, poor fit] | –
60 | COc1ccc(N(C)S(=O)(=O)c2cccc(C(=O)Nc3ccc(N4CCOCC4)cc3)c2)cc1 | inconclusive: 7.38 µM [inhibitor, partial curve] | –
61 | COC(=O)c1ccc(OCC(O)CNC2CCCC2)cc1 (stereo not given) | – | inactive: -7.58%
62 | Cn1nc(C(=O)N2CCN(c3ccc(Cl)cc3)CC2)c2c1-c1ccccc1S(=O)(=O)C2 | inconclusive: 11.7 µM [inhibitor, partial curve] | –
63 | COc1ccccc1CNC(=O)CSc1cc(=O)n(C)c2ccccc12 | – | inactive: 68%
64 | Cc1ccc(NC(=O)Cc2ccccc2)c(C)c1 | – | inactive: 0%
65 | COc1ccc(N2C(=O)NC(NS(=O)(=O)c3ccccc3)(C(F)(F)F)C2=O)cc1 (stereo not given) | – | inactive: 103%
66 | CCC(CC)C(=O)Oc1c(Sc2ccccc2[N+](=O)[O-])c(C)nn1C(C)(C)C | inconclusive: 3.7 µM [inhibitor, full curve] | –
67 | CC(C)(C)NC(=O)CN(Cc1ccc2c(c1)OCO2)C(=O)CCC(=O)Nc1nccs1 | inconclusive: 5.86 µM [inhibitor, partial curve] | –
68 | Cc1ccc(NC(C#N)c2ccccc2OCc2ccccc2)cc1 (stereo not given) | inconclusive: 0.828 µM [inhibitor, partial curve, poor fit] | –
69 | CCOc1ccc(-n2c(-c3ccccc3)c[n+]3c2CCC3)cc1 | inconclusive: 0.294 µM [inhibitor, full curve, poor fit] | –
70 | O=S(=O)(c1ccc(Br)cc1)c1nc(-c2ccccc2)oc1NCCN1CCOCC1 | active: 9.28 µM | –
